PubChem BioAssay AID743121 | NCATS | 2013

Screen: 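Knock-downs that sensitise breast cancer cells to camptothecin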 (primary screen)
Cells: MDA-MB-231 cells, a human breast cancer line
Reagent: single siRNA against human genes, 20 nM siRNA (0.8 pmol per well)
Timing: 120 h (drug added 48 h after transfection, read 72 h later)
Conditions: camptothecin 20 nM (about EC30) for 72 h; vehicle 0.1% DMSO in parallel plates
Measurement: 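Cell viability by ATP luminescence (CellTiter-Glo) as % of non-targeting siRNA wells, and the log2 ratio of viability without drug over viability with camptothecin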
Scale: log2 vehicle/camptothecin viability: higher = stronger sensitisation to camptothecin
Call rule: 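Each gene scored by redundant siRNA activity (RSA) over its individual siRNA ratios; a gene is called active at p < 0.001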
The deposit covers about 26,000 reagents; shown is an unselected part. 167 of them (0.63%) were called active. 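Calls are per gene from RSA p-values that are not deposited; an individual active-marked siRNA can sensitise only weakly.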 Reagents against one gene are numbered here. Further read-outs or replicates are left out here. Reagent sequences are not shown.

log2 vehicle/camptothecin viability, by target and reagent
MASP1 (MBL associated serine protease 1): #1 -0.475 inactive; #2 -0.285 inactive; #3 -0.154 inactive; #4 -0.419 inactive
GM2A (ganglioside GM2 activator): #1 0.4 inactive; #2 -0.171 inactive; #3 -0.176 inactive; #4 -0.0521 inactive
PEAK1 (pseudopodium enriched atypical kinase 1): #1 0.0661 inactive; #2 0.345 inactive; #3 -0.382 inactive; #4 -0.0457 inactive; #5 -0.172 inactive
AKAP12 (A-kinase anchoring protein 12): #1 0.123 inactive; #2 -0.0528 inactive; #3 -0.257 inactive; #4 -0.239 inactive
LNPEP (leucyl and cystinyl aminopeptidase): #1 -0.108 inactive; #2 -0.171 inactive; #3 -0.532 inactive; #4 -0.11 inactive
ATP1A4 (ATPase Na+/K+ transporting subunit alpha 4): #1 -0.223 inactive; #2 -0.224 inactive; #3 -0.584 inactive; #4 -0.157 inactive
SERPINB10 (serpin family B member 10): #1 -0.168 inactive; #2 0.13 inactive; #3 -0.0335 inactive; #4 -0.0488 inactive
TGFB1I1 (transforming growth factor beta 1 induced transcript 1): #1 -0.363 inactive; #2 -0.381 inactive; #3 -0.406 inactive; #4 -0.378 inactive
CLN3 (CLN3 lysosomal/endosomal transmembrane protein, battenin): #1 -0.0222 inactive; #2 0.108 inactive; #3 -0.464 inactive; #4 -0.202 inactive

Entries listed so far whose target name begins with S or s:
log2 vehicle/camptothecin viability, by target and reagent
SERPINB10 (serpin family B member 10): #1 -0.168 inactive; #2 0.13 inactive; #3 -0.0335 inactive; #4 -0.0488 inactive

Further entries follow.
log2 vehicle/camptothecin viability, by target and reagent
TRPV1: #1 -0.522 inactive; #2 -0.298 inactive; #3 -0.175 inactive
TPT1P8 (TPT1 pseudogene 8): #1 0.144 inactive; #2 0.342 inactive; #3 -0.0294 inactive; #4 0.68 inactive
RAB7A (RAB7A, member RAS oncogene family): #1 0.391 inactive; #2 -0.146 inactive; #3 0.786 inactive; #4 -0.208 inactive
ATP1A3 (ATPase Na+/K+ transporting subunit alpha 3): #1 -0.485 inactive; #2 0.209 inactive; #3 -0.228 inactive
MRPS28 (mitochondrial ribosomal protein S28): #1 -0.0814 inactive; #2 -0.106 inactive; #3 -0.194 inactive
MARK1 (microtubule affinity regulating kinase 1): #1 -0.304 inactive; #2 -0.173 inactive; #3 -0.0176 inactive; #4 -0.182 inactive
KCNIP3 (potassium voltage-gated channel interacting protein 3): #1 -0.324 inactive; #2 -0.314 inactive; #3 0.35 inactive; #4 0.0206 inactive
DNER (delta/notch like EGF repeat containing): #1 -0.399 inactive; #2 -0.0457 inactive; #3 0.0847 inactive; #4 -0.0156 inactive
STX2 (syntaxin 2): #1 0.265 inactive; #2 -0.157 inactive; #3 -0.31 inactive; #4 -0.132 inactive
EPS8L3 (EPS8 signaling adaptor L3): #1 -0.132 inactive; #2 -0.0148 inactive; #3 -0.247 inactive; #4 0.0803 inactive
PIK3R3 (phosphoinositide-3-kinase regulatory subunit 3): #1 -0.111 inactive; #2 -0.217 inactive; #3 0.798 inactive; #4 -0.293 inactive
ADGRF4 (adhesion G protein-coupled receptor F4): #1 0.147 inactive; #2 -0.0652 inactive; #3 -0.0545 inactive; #4 -0.33 inactive
RPGR (retinitis pigmentosa GTPase regulator): #1 -0.258 inactive; #2 -0.315 inactive; #3 0.0966 inactive; #4 -0.106 inactive
DMBT1 (deleted in malignant brain tumors 1): #1 -0.328 inactive; #2 0.00756 inactive; #3 -0.434 inactive; #4 -0.3 inactive
